Experimental data reported in article PMC5589746.
No constants are given. Whether binding was seen depends on the method and setting. In cells and extracts the contact can be indirect. Binding calls can cover weak binding; strength is not graded here.

By UniProt entry, the sequences of proteins in these tests, tags left out. Where a name states a change or a piece, a line headed by the entry shows the natural chain unless it says otherwise.
UniProt P10637: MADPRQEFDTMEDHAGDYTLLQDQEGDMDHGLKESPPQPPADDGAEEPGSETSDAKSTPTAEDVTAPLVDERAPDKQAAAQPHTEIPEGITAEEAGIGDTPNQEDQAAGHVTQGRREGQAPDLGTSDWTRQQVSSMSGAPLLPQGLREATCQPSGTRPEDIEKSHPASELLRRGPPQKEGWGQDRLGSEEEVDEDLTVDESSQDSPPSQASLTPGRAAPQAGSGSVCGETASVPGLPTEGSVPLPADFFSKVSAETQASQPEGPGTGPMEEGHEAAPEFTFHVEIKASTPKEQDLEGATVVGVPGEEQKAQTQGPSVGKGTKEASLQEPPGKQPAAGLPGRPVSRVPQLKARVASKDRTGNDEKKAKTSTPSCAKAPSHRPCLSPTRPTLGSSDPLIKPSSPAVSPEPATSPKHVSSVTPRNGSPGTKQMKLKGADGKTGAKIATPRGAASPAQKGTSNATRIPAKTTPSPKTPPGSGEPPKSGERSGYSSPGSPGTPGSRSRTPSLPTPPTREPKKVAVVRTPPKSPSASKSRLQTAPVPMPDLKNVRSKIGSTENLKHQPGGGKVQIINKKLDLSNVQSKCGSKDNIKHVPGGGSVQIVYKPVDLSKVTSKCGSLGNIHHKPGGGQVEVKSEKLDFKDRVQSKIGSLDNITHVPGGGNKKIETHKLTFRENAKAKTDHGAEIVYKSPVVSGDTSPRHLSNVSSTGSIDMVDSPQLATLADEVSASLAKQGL

Assays:
[1] = molecular target: microtubule-associated protein tau (mouse (endogenous in mouse brain)) (UniProt P10637); assay: proximity ligation; Duolink, < 40 nm; primary tau+/+ neurons fixed at 21 DIV; mouse Tau5 and rabbit SynGAP1 antibodies
[2] = molecular target: microtubule-associated protein tau (mouse (endogenous in mouse brain)) (UniProt P10637); assay: co-IP; precipitation with tau antibodies (Tau5, Tau1, 4RTau) from tau+/+ mouse brain extracts; 50 mM Tris-HCl, 150 mM NaCl, 1% NP-40; overnight at 4 C; magnetic protein G beads; washes with 150-250-450 mM NaCl; Western blot for SynGAP1

For SynGAP1 (from UniProt F6SEU4 1-1340), the binding [1] was “binds” and the binding [2] was “binds”.
